Test results from patent US6342335B1, “Polymethine compounds, method of producing same, and use thereof” (Yamamoto Chemicals, Inc., priority 1999, dated 2002).
Some of these results come from one statement about several compounds together.

Assay: Maximum absorption wavelength (λmax) in diacetone alcohol
Type: physicochemical
Conditions: background statement on known compounds, no unit or solvent printed
Experimental: The maximum absorption wavelength (λmax) of the polymethine compound of the present invention in diacetone alcohol as well as those of known Compound A and Compound B were measured.

SMILES: COCCN1/C(=C\C=C2/CCCC(/C=C/C3=[N+](CCOC)c4ccccc4C3(C)C)=C2Cl)C(C)(C)c2ccccc21 [Compound A]
- maximum absorption wavelengths: 785˜815
